Tested on: LNCaP
Experiment: 72 hr XTT cell viability assay, LNCaP
Assay type: cell-based
Details: Homo sapiens, read-out: IC50 cell growth inhibition
Source text: The CyQUANT XTT Cell Viability Assay (Invitrogen) is a complete, optimized assay that generates a consistent colorimetric detection of viable mammalian cells. The assay kit consists of two reagents, XTT Reagent (2,3-bis-(2-methoxy-4-nitro-5-sulfophenyl)-2H-tetrazolium-5-carboxanilide) and Electron Coupling Reagent. XTT Reagent is used to assess cell viability as a function of cellular redox potential, and the electron coupling reagent improves the dynamic range of the assay. The kit was used as per the manufacturers' instructions.

## CNC(=O)c1ccc(N2C(=S)N(c3ccc(C#N)c(C(F)(F)F)c3)C(=O)C2(C)C)cc1F [Enzalutamide]
  IC50: 4.82 µM
